Library screen at single concentrations

Data taken from ChEMBL document CHEMBL3988442, “University of Dundee, Small-Polar-MMV Screening Library” (2021).

A: 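Growth of Mycobacterium tuberculosis over 3 days (7H9 medium with glucose and tyloxapol); the read-out is not stated. Concentration: 50 µM. Higher reads as more growth inhibition (inferred: compounds with an IC50 in retests scored well above the rest). About 69,000 compounds were tested under these conditions; 1.1% (about 760) showed 50% or more at least once.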
B: 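Growth of Mycobacterium tuberculosis over 4 days (cholesterol / DPPC medium with tyloxapol); the read-out is not stated. Compounds at 50 µM. The record gives no direction; compounds that gave an IC50 in retests scored well above the rest, so higher reads as more growth inhibition. Of about 69,000 compounds tested this way, about 370 (0.54%) reached 50% or more in at least one test.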

Results are given as percent effect.
The record does not define 0% and 100%; most values in the screen are far below 50% and negative numbers occur (in some assays of this library far below -100).
This is an unselected part of the compounds tested.
Two or more numbers in one place are separate tests of the same structure; such repeats can differ widely.

structure,A,B
CNC(=O)c1ccc(N(C)C2CCC2)nn1,-15.61%,-25.23%
[H][C@@]12CN(C(=O)NC3CC3)C[C@]1([H])C(=O)N(Cc1cccc(F)c1)C2,18.65%,-10.52%
Cc1nc2c(c(NCC(c3ccccc3C)N(C)C)n1)CCNC2 (centres unmarked),-41.72%,7.697% & -43.1%
CC(Cc1ccco1)NS(=O)(=O)N1CCCCC1 (centres unmarked),12.24% & 15.64%,-2.053%
Cc1ccc2c(c1)C(N1CCOCC1)CC21CCNCC1 (centres unmarked),-10.92%,-1.013%
OC1CCN(CCNc2ncc3c(n2)CCN3c2ccccc2)CC1,21.1% & 8.651%,0.542%
O=C(c1cnccn1)N1CCC(Cc2cnc3[nH]ccc3c2)CC1,29.97%,-3.475%
c1cnc(N2CCCC(c3cncc(-n4ccnc4)n3)C2)nc1 (centres unmarked),17.18%,-14.17%
CCC(=O)N1CCC2(CC1)CC(CC(=O)NC1CC1)c1ccccc1O2 (centres unmarked),6.139%,10.65%
CC(C)CC(=O)N1CCC(c2nnc3n2CCCCC3)CC1,-4.052%,-23.8%
[H][C@]12CCN(c3ccc(C)nn3)C[C@@]1([H])CN(Cc1c[nH]cn1)C2,-28.26%,-2.736%
NC(=O)N1CCC2(CCN(Cc3cccc(F)c3)CC2)CC1.O=C(O)C(F)(F)F,-38.9%,-27.48%
COc1ccc(F)cc1C(C)NC(=O)c1nnc(C)s1 (centres unmarked),30.9%,22.3%
CC(C)CC(NC(=O)CSc1ccc(F)c(Cl)c1)C(=O)O (centres unmarked),-12.25%,-14.52%
Fc1cnc(N2CCCn3c(nnc3Cn3cccc3)C2)nc1.O=C(O)C(F)(F)F,6.653%,-5.744%
Cc1cccc2ncnc(N3CCOC(C)C3)c12 (centres unmarked),3.354% & 8.776%,1.17%
CC(C)(C)CN1CCCC2(CCN(C(=O)c3cn[nH]c3)C2)C1 (centres unmarked),-1.1%,5.172%
CN(CCc1ccncc1)Cc1nccn1Cc1ccccc1,-12.02%,-21.08% & 1.52%
Cc1ccc(OCCCC(=O)Nc2nonc2C)cc1C,-0.4638% & -16.07%,-13.27%
CCOC(=O)[C@H]1[C@@H](O)C(=O)N(C)C12CCN(C(=O)OCC)CC2,-24.88%,-17.4%
Cc1cc2nc(SCC(=O)N3CCOCC3)n(C(C)C)c(=O)c2[nH]1,-52.5%,-19.98%
CN(C)C(=O)CN1CCCc2c(F)cc(Br)cc21,-4.005%,-12.45%
CS(=O)(=O)N1CCc2ncc(CNC(=O)C3CCC3)n2CC1,-7.423%,0.8051%
CCn1ncc2c(C(F)(F)F)cc(-c3ccn(C)n3)nc21,22.98%,19.68%
COCCOCC(=O)Nc1nc2c(OC)cc(F)cc2s1,-6.719%,16%
[H][C@]12CC[C@]([H])(CN(C(=O)c3cccnc3)C1)N(Cc1ccccc1C#N)C2,-4.095%,1.795% & -0.7253%
Cc1nn2c(N3CCCC(C#N)C3)cc(-c3ccccc3)nc2c1C (centres unmarked),16.48%,13.2% & -3.2%
N#Cc1cc2n(n1)CCN(C(=O)CCc1c[nH]c3ccccc13)C2,2.46% & 14.16%,11.42%
Cn1ccnc1CN1CCC2(CC1)CN(CC1CC1)C(=O)CO2,2.746%,13.58%
COc1ncccc1N(C)C(=O)Cn1cc(-c2ccccc2)nn1,-29.94%,7.729%
CCOC(C)c1noc(CN(C)C(=O)c2cc3ccccn3c2)n1 (centres unmarked),0.2652%,7.548%
CC(C)OCCCNC(=O)CS(=O)(=O)Cc1ccc(Cl)c(Cl)c1,-4.37%,-27.7%
CC(Cn1cncn1)NC(=O)NCc1csc(N(C)C)n1 (centres unmarked),-23.02% & 1.841%,-2.262%
c1ccn2c(C3CCCN3Cc3nc(C4CC4)no3)nnc2c1 (centres unmarked),-2.744%,-11.52%
CC(C)N1c2sc(-c3ccccc3)nc2CC1C(=O)NC1CCCC1 (centres unmarked),0.03228% & -23.34%,1.361%
Cc1cc(N2CCN(Cc3ccsc3)C(CCO)C2)nc(N)n1 (centres unmarked),-8.686% & -4.337%,3.925%
O=C(O)C(F)(F)F.O=C(c1cscn1)N1CCCC2(CCN2Cc2cccc(F)c2)C1 (centres unmarked),-4.651%,-8.775%
CN1C[C@@H](C(=O)N2CCOCC2)[C@@]2(CCc3ccccc3C(=O)N2)C1,30.12%,15.19%
O=S(=O)(CCCn1cncn1)Cc1ccc(F)cc1Cl,-2.223% & 10.6%,-11.45%
COc1ccnc(NC(=O)c2ccsc2)c1,-15.66%,6.212%
CNc1ncc(CN(C)C(=O)c2cccc(CC3CCNCC3)c2)cn1,-48.59% & -12.96%,-19.36%
O=C(Cc1cccc(Cl)c1)Nc1cnccc1SCCCO,5.093% & 4.99%,-6.579%

5 of the entries, repeated:

For N#Cc1cc2n(n1)CCN(C(=O)CCc1c[nH]c3ccccc13)C2 the result was A: 2.46% & 14.16%; B: 11.42%.
For CN(CCc1ccncc1)Cc1nccn1Cc1ccccc1 the result was A: -12.02%; B: -21.08% & 1.52%.
For CS(=O)(=O)N1CCc2ncc(CNC(=O)C3CCC3)n2CC1 the result was A: -7.423%; B: 0.8051%.
For Cc1ccc(OCCCC(=O)Nc2nonc2C)cc1C the result was A: -0.4638% & -16.07%; B: -13.27%.
For COCCOCC(=O)Nc1nc2c(OC)cc(F)cc2s1 the result was A: -6.719%; B: 16%.